Measured values taken from PubChem BioAssay AID1347076 (National Center for Advancing Translational Sciences (NCATS), 2019).
The campaign covered roughly 400,000 compounds. About 13,000 (3.2%) were called active. The inconclusive results got no clear call from the source; some entries with a clear call stand among them for comparison. The call rests on the fitted dose curve; in most records, active means well fitted cell-killing curve with a large enough effect; inconclusive means small, poorly fitted or top-dose-only effect, or effect the other way; inactive means flat fitted curve, though single readings scatter. Potencies beside an inconclusive call are fits to weak or partial responses and may not hold up. Where a SMILES comes first, the peptide text is derived from it. The star is where a group is joined. Cbz = O=C(OCc1ccccc1)*

Test: qHTS assay for MDR1-selective chemotherapeutics: Primary screen using the drug-selected MDR subline cells KB-V1; further: nearly all actives have a fitted effect of over 60% in size
Conditions: KB-V1 MDR cells viability, CellTiter-Glo, 72 h; activity change, negative = cytotoxicity: at 46.1 µM (top of the series)
Summary of the method: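 Cytotoxicity toward P-gp-expressing KB-V1 cells was determined as loss of CellTiter-Glo luminescence after 72 h at 37 degrees C. Compounds were tested in quantitative HTS format across a concentration range, with curves fitted to normalized data.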
On the % scale 0 is the no-effect control and ±100 the full control effect; potency means the concentration at half of the fitted maximal effect.

| SMILES | Potency | activity change, negative = cytotoxicity |
| --- | --- | --- |
| CCOC(=O)c1cc(-c2ccc(F)cc2)n(CCC(=O)Nc2nc3ccc(OC)cc3s2)c1C | inconclusive: 25.9 µM [cytotoxic, single point] | – |
| COCCNC(=O)C1(C)CCCN(C(=O)c2cc(C)on2)C1 (centres undefined) | – | inactive: 1.56% |
| Cn1nnnc1SCCNCc1cccc2ccccc12 | inconclusive: 18.4 µM [cytotoxic, single point] | – |
| O=S(=O)(c1ccc2ccccc2c1)N1CCc2ccccc21 | – | inactive: -21.8% |
| COc1ccc(CNC(=O)C2CCC(=O)N(CCCN3CCCC3=O)C2)c(OC)c1 (centres undefined) | – | inconclusive: 36.2% |
| COCCn1c(SC(C)C(=O)Nc2ccc(Cl)cn2)nnc1-c1ccncc1 (centres undefined) | inconclusive: 16.4 µM [cytotoxic, single point] | – |
| O=C(c1ccc([N+](=O)[O-])s1)N1CCc2ccccc2C1 | inconclusive: 29.1 µM [cytotoxic, single point] | – |
| Cc1ccc(-n2nc(C)c3c(C)cc(=O)n(CC(=O)NC(C)c4ccccc4)c32)cc1 (centres undefined) | – | inactive: 8.29% |
| COc1ccc(CN2CCC(CO)(Cc3ccccc3C(F)(F)F)CC2)c(F)c1 | – | inactive: 26.9% |
| CCOc1ccc(S(=O)(=O)Nc2cc3c(C(=O)OC)c(COC)oc3c3ccccc23)cc1 | active: 14.6 µM | – |
| COc1cc2[nH]c(=S)n(NC(=O)c3ccccc3)c(=O)c2cc1OC | – | inactive: -13.5% |
| CCOc1ccc(N(CC(=O)N2CCOCC2)S(=O)(=O)c2ccc(F)cc2)cc1 | inconclusive: 11.6 µM [cytotoxic, partial curve] | – |
| CCOc1cc(-c2ccc(OC(=O)c3ccc(OC)cc3)c(OC)c2)cc(=O)c2c(C)oc(C)c12 | inconclusive: 11.6 µM [rising, partial curve] | – |
| Cc1ccccc1-c1csc(C(O)c2cccnc2)n1 (centres undefined) | – | inactive: -19.2% |
| O=C(Nc1ccc(Cl)c(-c2nc3ccccc3[nH]2)c1)c1cccnc1 | active: 20.6 µM | – |
| C1=C/C(=C2/C=Cc3ccccc32)c2ccccc2N1 | active: 2.31 µM | – |
| CCOC(=O)C1CCN(Cc2cc(=O)oc3cc(C)c(Cl)cc23)CC1 | – | inactive: 7.18% |
| COc1cccc(Oc2cnc(N)nc2-c2ccc(OC)cc2O)c1 | active: 2.59 µM | – |
| O=C(Nc1nccs1)c1ccc(CSc2nnnn2-c2ccccc2)cc1 | – | inactive: 0% |
| COc1ccc(CN=C(C#N)C2=C(O)c3ccccc3C2=O)cc1 | inconclusive: 16.4 µM [cytotoxic, single point] | – |
| COCCN1C(=O)CS/C1=C(/C#N)C(=O)NCc1ccco1 | inconclusive: 13 µM [rising, partial curve, poor fit] | – |
| Cc1ccc(N2CCN(C(=O)N3CCCC3)CC2)cc1Cl | inconclusive: 20.6 µM [cytotoxic, single point] | – |

| SMILES | Potency | activity change, negative = cytotoxicity |
| --- | --- | --- |
| COc1cccc(CNC(=O)[C@@H]2CCCN2C(=O)[C@H]2CCCCN2C(=O)c2cccs2)c1 | inconclusive: 29.1 µM [rising, single point] | – |
| C=CC(C)Sc1nc2c(c(=O)n(C)c(=O)n2C)n1Cc1ccccc1Cl (centres undefined) | inconclusive: 29.1 µM [cytotoxic, single point] | – |
| C=CCOc1c(Br)cc(/C=N\n2nnnc2N)cc1OC | inconclusive: 9.2 µM [cytotoxic, partial curve] | – |
| CN(c1ccc(C(=O)Nc2ccc(S(=O)(=O)N3CCCC3)cc2)cc1)S(C)(=O)=O | inconclusive: 16.4 µM [cytotoxic, single point] | – |
| CC(C)c1cccc(-c2ccc3c(c2)S(=O)(=O)c2cccc(C(=O)O)c2C3=O)c1 | inconclusive: 29.1 µM [rising, single point] | – |
| Cc1ccc(C(=O)Nc2cccc([N+](=O)[O-])c2)cc1S(=O)(=O)Nc1ccc(C(=O)O)cc1 | – | inactive: -0.171% |
| CCc1nc2c(OCc3cccc(Cl)c3)cccn2c1N(C)C(=O)c1ccc(OC)cc1 | inconclusive: 18.4 µM [cytotoxic, partial curve] | – |
| O=C(NC(Cc1ccccc1)c1nc2ccccc2[nH]1)c1cccc([N+](=O)[O-])c1 (centres undefined) | inconclusive: 18.4 µM [cytotoxic, single point] | – |
| Cn1c(=O)c(=O)n(C)c2cc(N3CCOCC3)c(NS(=O)(=O)c3ccc(Br)cc3)cc21 | inconclusive: 13 µM [rising, partial curve] | – |
| CCc1ccc(OC)c(S(=O)(=O)Nc2ccccc2C)c1 | inconclusive: 14.6 µM [cytotoxic, single point] | – |
| CC(CCc1ccccc1)NC(=O)CN1CCN(Cc2ccc(Cl)cc2)C1=O (centres undefined) | inconclusive: 20.6 µM [cytotoxic, single point] | – |
| COc1ccc(-c2nn(-c3ccccc3)cc2C2NC(=O)NC(C)=C2C(=O)OC(C)C)cc1Cl (centres undefined) | – | inactive: 0% |
| COC(=O)[C@@]1(Cc2ccc(OC)cc2)[C@H]2c3cc(C(=O)N(C)C)n(Cc4ccc(OC(F)(F)F)cc4)c3C[C@H]2CN1C(=O)c1ccccc1 | inconclusive: 18.4 µM [cytotoxic, single point] | – |
| Cc1cc(C)c2c(=O)n3c(nc2c1)C(CC(C)C)NC(=O)c1cc2ccccc2cc1-3 (centres undefined) | – | inactive: -6.74% |
| Cc1cccc(NC(=S)NC(=O)C(c2ccccc2)c2ccccc2)n1 | – | inactive: -2.2% |
| COc1cc2c(cc1NC(=O)/C=C/c1cc(OC)c(OC)c(OC)c1)oc1ccccc12 | – | inactive: -15.3% |
| Cc1ccc(-c2nnn(CC(=O)N(CC(=O)NC3CCCCC3)c3ccccc3F)n2)o1 | inconclusive: 2.06 µM [cytotoxic, partial curve, poor fit] | – |
| O=C(NCCCN1CCOCC1)c1ccccc1NS(=O)(=O)c1ccc(Br)cc1 | inconclusive: 29.1 µM [cytotoxic, single point] | – |
| O=C(COc1ccc(Br)cc1CO)Nc1ccccc1 | inconclusive: 18.4 µM [cytotoxic, single point] | – |
| CCCCn1nnnc1C(c1ccccc1)N1CCN(C(=O)c2ccco2)CC1 (centres undefined) | – | inactive: 0% |
| CCC(C)C(NC(=O)C(C)NC(=O)CNC(=O)CNC(=O)OCc1ccccc1)C(=O)OC (centres undefined) (Cbz-GGAI-OMe; configuration not given here) | inconclusive: 20.6 µM [rising, partial curve, poor fit] | – |
| CN(C)S(=O)(=O)c1cccc(COC(=O)Cc2c(F)cccc2Cl)c1 | inconclusive: 29.1 µM [rising, single point] | – |
